According to paper PMC12482648, “G-quadruplex structural motifs modulate protein–RNA interactions within the transcriptome”:
The exact form of at least one protein or probe is not confirmed. A weaker result is weaker than the reference pair of the same experiment. Where a protein sequence is shown, tags need not be part of it.

These sequences were tested against T1, FUS C-terminal RNA-binding module (His6-FUS) (UniProt P35637) (assay: EMSA). Settings: 150 mM LiCl (no K+), complex seen, less intense than KCl, supershift with anti-His; EMSA: 1 uM RNA, 0/0.1/1/5 uM His6-FUS, 50 mM HEPES-KOH (or HEPES-LiOH) pH 7.4, 150 mM KCl (or LiCl), 200 ng BSA, 2 mM EDTA, 2 mM DTT, 5% glycerol, 30 min 30 C; recombinant protein; residues 269-526; protein details: His6 (pET28a-TEV); label: none (SYBR Gold stain).
T1 sequence (looked up): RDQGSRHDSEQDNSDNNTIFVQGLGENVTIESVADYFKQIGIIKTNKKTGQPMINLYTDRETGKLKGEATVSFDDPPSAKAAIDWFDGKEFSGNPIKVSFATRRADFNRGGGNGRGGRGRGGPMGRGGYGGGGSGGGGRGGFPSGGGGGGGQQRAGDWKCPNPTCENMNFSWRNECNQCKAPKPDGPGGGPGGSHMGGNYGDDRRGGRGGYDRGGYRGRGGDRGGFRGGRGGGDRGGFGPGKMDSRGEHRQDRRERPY

Sequence | binding result
AGGGGGAGGGUGUGGGGGCAGUGAGGGU [28RPL23A WT] | binds more weakly
UGGUGCGCGGGUCCCGGGGAGGGGA [25COPS9 WT] | binds more weakly
UUAGGGUUAGGGUUAGGGUUAGGG [TERRA WT] | binds more weakly
